Test: Proteomic analysis of native murine pancreata and decelled pancreatic ECM (Table 1)
Set-up: species or system mouse

B1: Q99LG0 (protein, UniProt Q99LG0 1-825, looked up)
chain: MGKKRTKGRSAPDTVASESAEPVCRHLRKGLEQGNLKKALVNVEWNICQDCKTDNKVKDKPEEEAEDPSVWLCLKCGHQGCGRDSQEQHALKHYTTPRSEPHYLVLSLDNWSVWCYKCDEEVKYCSSNRLGQVVDYVRKQAGVRTSKPAEKNNGHIELENKKLEKESKNEQEREKSENLAKETIPMDSASQITVKGLSNLGNTCFFNAVMQNLSQTPVLRELLKEVKMSGTIVKIEPPDLALTEPLEVNLEPPGPLTLAMSQFLSEMQENKKRVVTPKELFSQVCKKATRFKGYQQQDSQELLRYLLDGMRAEEHQRVSKGILKAFGNSTEKLDEEVKNKVKDYEKKKAIPSFVDRIFGGELTSTIMCDECRTVSLVHESFLDLSLPVLDDQSGKKSINDKNVKMTMEEEDKDSEEEKDDSYMKSRSDLPSGTSKHLQKKAKKQAKKQAKNQRRQQKIQERFLHFNELCATDYTEDNEREADTALAGEVEVDTDSTHGSQEEATQIELSVNQKDLDGQESMIERTPDVQESPEDLGVKSANTESDLGIVTPAPECPRDFNGAFLEERTSGELDIINGLKNLNLNAAVDPDEINIEIPNDSHSAPKVYEVMNEDPETAFCTLANREAFSTDECSIQHCLYQFTRNEKLQDANKLLCEVCSRRQCNGPKANIKGDRRHVYTNAKKQMLVSLAPPVLTLHLKRFQQAGFNLRKVNKHIKFPEILDLAPFCTLKCKNVAEESTRVLYSLYGVVEHSGTMRSGHYTAYAKERTASCHLSNLVLHGDIPQDCEMESTKGQWFHISDTHVQAVPITKVLNSQAYLLFYERIL
modifications: full-length
Mean of log2(intensities) (Native pancreas tissue): 21.63 a.u.
Mean of log2(intensities) (Pancreatic ECM (decelled)): 23.86 a.u.

B2: Q9CXK8 (protein, UniProt Q9CXK8 1-180, looked up)
chain: MRPLTEEETRVMFEKIAKYIGENLQLLVDRPDGTYCFRLHNDRVYYVSEMMLKLAANISGDKLVSLGTCFGKFTKTHKFRLHVTALDYLAPYAKYKVWVKPGAEQSFLYGNHVLKSGLGRITENTSQYQGVVVYSMADIPLGFGVAAKSTQDCRKVDPMAIVVFHQADIGEYVRHEETLT
modifications: full-length
Mean of log2(intensities) (Native pancreas tissue): 21.61 a.u.
Mean of log2(intensities) (Pancreatic ECM (decelled)): 23.80 a.u.

B3: Q9R0Q9 (protein, UniProt Q9R0Q9 1-247, looked up)
chain: MAGEADGRFKGLLVPILLPEKCYDQLFVQWDLLHVPCLKILLSKGLGLGIVAGSLLVKLPQVFKLLGAKSAEGLSLQSVMLELVALTGTVVYSITNNFPFSSWGEALFLTLQTVAICFLVMHYRGETVKGVAFLACYAMVLLALLSPLTPLAVVTLLQASNVPAVVVGKLLQAATNYRNGHTGQLSAITVFMLFGGSLARIFTSVQETGDPLMAGVFVVSSLCNGLIAAQVLFYWNAKAPHKQKKEQ
modifications: full-length
Mean of log2(intensities) (Native pancreas tissue): 24.74 a.u.
Mean of log2(intensities) (Pancreatic ECM (decelled)): 26.89 a.u.

B4: Q62009 (protein, UniProt Q62009 1-838, looked up)
chain: MVPLLPLYALLLLFLCDINPANANSYYDKVLAHSRIRGRDQGPNVCALQQILGTKKKYFSSCKNWYQGAICGKKTTVLYECCPGYMRMEGMKGCPAVMPIDHVYGTLGIVGATTTQHYSDVSKLREEIEGKGSYTYFAPSNEAWENLDSDIRRGLENNVNVELLNALHSHMVNKRMLTKDLKHGMVIPSMYNNLGLFINHYPNGVVTVNCARVIHGNQIATNGVVHVIDRVLTQIGTSIQDFLEAEDDLSSFRAAAITSDLLESLGRDGHFTLFAPTNEAFEKLPRGVLERIMGDKVASEALMKYHILNTLQCSEAITGGAVFETMEGNTIEIGCEGDSISINGIKMVNKKDIVTKNGVIHLIDEVLIPDSAKQVIELAGKQQTTFTDLVAQLGLASSLKPDGEYTLLAPVNNAFSDDTLSMDQRLLKLILQNHILKVKVGLSDLYNGQILETIGGKQLRVFVYRTAICIENSCMVRGSKQGRNGAIHIFREIIQPAEKSLHDKLRQDKRFSIFLSLLEAADLKDLLTQPGDWTLFAPTNDAFKGMTSEERELLIGDKNALQNIILYHLTPGVYIGKGFEPGVTNILKTTQGSKIYLKGVNETLLVNELKSKESDIMTTNGVIHVVDKLLYPADIPVGNDQLLELLNKLIKYIQIKFVRGSTFKEIPMTVYTTKIITKVVEPKIKVIQGSLQPIIKTEGPAMTKIQIEGDPDFRLIKEGETVTEVIHGEPVIKKYTKIIDGVPVEITEKQTREERIITGPEIKYTRISTGGGETGETLQKFLQKEVSKVTKFIEGGDGHLFEDEEIKRLLQGDTPAKKIPANKRVQGPRRRSREGRSQ
modifications: full-length
Pancreatic ECM: Mean of log2(intensities) (abundance of the listed protein in decelled pancreatic ECM): 25.09 a.u.
Native pancreas tissue: Mean of log2(intensities) (abundance of the listed protein in native murine pancreas tissue): 22.23 a.u.

Reference: patent US20240108662A1, “ENGINEERED CELLS FUNCTIONALIZED WITH IMMUNE CHECKPOINT MOLECULES AND USES THEREOF” (The University of North Carolina at Chapel Hill, priority 2020, published 2024)
